Results as given in US20100055034A1 (DOMPE PHA MA S P A, published 2010).
Results are given in words; binding and its absence hold for the method and conditions named. Some binding calls cover weakened binding; strength is not graded here.

Protein sequences, listed by entry. Tags and fused reporters are not part of them. Lines headed by an entry give the natural chain unless they say otherwise; changes in a name come on top.
UniProt P15328: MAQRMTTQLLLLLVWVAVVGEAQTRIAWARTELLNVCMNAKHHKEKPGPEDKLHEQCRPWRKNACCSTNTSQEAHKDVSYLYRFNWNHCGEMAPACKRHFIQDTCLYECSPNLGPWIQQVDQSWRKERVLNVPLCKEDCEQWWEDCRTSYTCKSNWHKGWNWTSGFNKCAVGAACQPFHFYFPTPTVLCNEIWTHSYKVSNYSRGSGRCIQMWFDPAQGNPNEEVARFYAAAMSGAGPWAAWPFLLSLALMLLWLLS

Target: human folate receptor alpha as expressed on cells (human) (UniProt P15328)
Test: cell ELISA on fixed A431-FR, OVCAR3 and IGROV1 cells, F(ab')2

B1: AFRA F(ab')2 natural dimer (other)
light: EIVLTQSPASLAVSPGQRATITCRASESVSFLGINLIHWYQQKPGQPPKLLIYQASNKDTGVPARFSGSGSGTDFTLTINPVEANDTANYYCLQSKNFPPYTFGQGTKLEIKRTVAAPSVFIFPPSDEQLKSGTASVVCLLNNFYPREAKVQWKVDNALQSGNSQESVTEQDSKDSTYSLSSTLTLSKADYEKHKVYACEVTHQGLSSPVTKSFNRGEC
heavy: NVQLVESGGGLVQPGRSLRLSCTTSGFTFGDYAMIWARQAPGKGLEWVSSISSSSSYIYYADSVKGRFTISRDNAKNSLYLQMNSLRAEDTAVYYCARERYDFWSGMDVWGKGTTVTVSSASTKGPSVFPLAPSSKSTSGGTAALGCLVKDYFPEPVTVSWNSGALTSGVHTFPAVLQSSGLYSLSSVVTVPSSSLGTQTYICNVNHKPSNTKVDKKDKTSC
modifications: C-terminal hinge cysteine disulfide-bonded to the second Fab'
notes: F(ab')2 made by natural oxidation of Fab'; By SDS-PAGE the preparation is 80% L2H2 dimer, 16% L2H and 4% free heavy chain; For Q1N see the note of m1; also called F(ab')2-AFRA; AFRA dimer
For B1, the binding was “binds”.
